No constants are given. Whether binding was seen depends on the method and setting. In cells and extracts the contact can be indirect. Some results given as binding are weak or reduced against the parent protein; the word gives no strength.
Target: pUL97-FLAG (HCMV pUL97, wild type, FLAG-tagged) (HCMV (human cytomegalovirus)) (UniProt P16788)
Test: co-IP; NPCs transduced with lentivirus expressing UL97-FLAG or K355M-FLAG, harvested 72 h post-transduction; lysate (1 mg total protein) with 1 ug anti-FLAG antibody overnight at 4°C, protein A+G agarose beads, 5 washes with Cell Lysis Buffer, immunoblot; normal IgG as control

B1: regulatory factor X 7 (RFX7) (protein, UniProt Q2KHR2 1-1460)
chain: MAEEQQQPPPQQPDAHQQLPPSAPNSGVALPALVPGLPGTEASALQHKIKNSICKTVQSKVDCILQEVEKFTDLEKLYLYLQLPSGLSNGEKSDQNAMSSSRAQQMHAFSWIRNTLEEHPETSLPKQEVYDEYKSYCDNLGYHPLSAADFGKIMKNVFPNMKARRLGTRGKSKYCYSGLRKKAFVHMPTLPNLDFHKTGDGLEGAEPSGQLQNIDEEVISSACRLVCEWAQKVLSQPFDTVLELARFLVKSHYIGTKSMAALTVMAAAPAGMKGITQPSAFIPTAESNSFQPQVKTLPSPIDAKQQLQRKIQKKQQEQKLQSPLPGESAAKKSESATSNGVTNLPNGNPSILSPQPIGIVVAAVPSPIPVQRTRQLVTSPSPMSSSDGKVLPLNVQVVTQHMQSVKQAPKTPQNVPASPGGDRSARHRYPQILPKPANTSALTIRSPTTVLFTSSPIKTAVVPASHMSSLNVVKMTTISLTPSNSNTPLKHSASVSSATGTTEESRSVPQIKNGSVVSLQSPGSRSSSAGGTSAVEVKVEPETSSDEHPVQCQENSDEAKAPQTPSALLGQKSNTDGALQKPSNEGVIEIKATKVCDQRTKCKSRCNEMLPGTSTGNNQSTITLSVASQNLTFTSSSSPPNGDSINKDPKLCTKSPRKRLSSTLQETQVPPVKKPIVEQLSAATIEGQKQGSVKKDQKVPHSGKTEGSTAGAQIPSKVSVNVSSHIGANQPLNSSALVISDSALEQQTTPSSSPDIKVKLEGSVFLLDSDSKSVGSFNPNGWQQITKDSEFISASCEQQQDISVMTIPEHSDINDLEKSVWELEGMPQDTYSQQLHSQIQESSLNQIQAHSSDQLPLQSELKEFEPSVSQTNESYFPFDDELTQDSIVEELVLMEQQMSMNNSHSYGNCLGMTLQSQSVTPGAPMSSHTSSTHFYHPIHSNGTPIHTPTPTPTPTPTPTPTPTPTSEMIAGSQSLSRESPCSRLAQTTPVDSALGSSRHTPIGTPHSNCSSSVPPSPVECRNPFAFTPISSSMAYHDASIVSSSPVKPMQRPMATHPDKTKLEWMNNGYSGVGNSSVSGHGILPSYQELVEDRFRKPHAFAVPGQSYQSQSRHHDTHFGRLTPVSPVQHQGATVNNTNKQEGFAVPAPLDNKGTNSSASSNFRCRSVSPAVHRQRNLSGSTLYPVSNIPRSNVTPFGSPVTPEVHVFTNVHTDACANNIAQRSQSVPLTVMMQTAFPNALQKQANSKKITNVLLSKLDSDNDDAVRGLGMNNLPSNYTARMNLTQILEPSTVFPSANPQNMIDSSTSVYEFQTPSYLTKSNSTGQINFSPGDNQAQSEIGEQQLDFNSTVKDLLSGDSLQTNQQLVGQGASDLTNTASDFSSDIRLSSELSGSINDLNTLDPNLLFDPGRQQGQDDEATLEELKNDPLFQQICSESMNSMTSSGFEWIESKDHPTVEMLG
- binding: binds

— article PMC9942973
